The whole screen tested about 340,000 compounds, of which about 170 (0.05%) were called active. Inconclusive means that the source gave no clear call. Such entries were picked first, then a sample of the others. The call rests on the fitted dose curve; in most records, active means well fitted inhibition curve with a large enough effect in the signal ratio, with a control signal flat (not every such curve was filed as active); inconclusive means small, poorly fitted or top-dose-only effect, or effect the other way, or a change in a side signal; inactive means flat fitted curve, though single readings scatter; the % refers to the signal ratio. Potencies beside an inconclusive call are fits to weak or partial responses and may not hold up.
Assay: qHTS Assay to Find Inhibitors of Chronic Active B-Cell Receptor Signaling;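 on activity change, negative = inhibition: plate controls were basal doxycycline-induced cells for no effect and cells given 10 µM MG132 for full effect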
Settings: ABC-DLBCL IkBa-CBG/CBR reporter, luminescence ratio (green luciferase fused to IkBa over red control in TMD8 lymphoma cells), 4 h; activity change, negative = inhibition: at 46.1 µM (top of the series)
Procedure, shortened: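 Compounds up to 46 uM were incubated four hours with TMD8 cells whose green CBG68 luciferase is fused to IkappaBalpha; red CBR luminescence normalised the signal, and concentration-effect curves were fitted to fusion, red and ratio data.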
Potency means the concentration at half of the fitted maximal effect.

| SMILES | Potency | activity change, negative = inhibition |
| --- | --- | --- |
| CC(C)(CC(=O)O)Cc1nc(-c2ccc(Cl)cc2)no1 | inconclusive: 18.4 µM [falling, partial curve, poor fit] |  |
| Cc1ccnc(NC(=O)c2ccccc2[N+](=O)[O-])c1 | inconclusive: 35.5 µM [falling, single point] |  |
| C[C@@H]1C(=O)N(c2ccccc2)[C@@H]1c1ccncc1 |  | inconclusive: 2.6% |
| COc1cc(C(=O)NC(=S)Nc2ccccc2N2CCCC2)cc(OC)c1OC |  | inconclusive: 0.562% |
| C/C(CC(=O)Nc1cccc(C(F)(F)F)c1)=N/NC(=O)C(=O)NCCO | inconclusive: 35.5 µM [falling, single point] |  |
| CCC(C)Sc1nc2c(cnn2-c2ccc(C)cc2)c(=O)[nH]1 (stereo not given) |  | inconclusive: -0.782% |
| CCOC(=O)c1cc(-c2ccccc2)n(-c2cccc(C(=O)NC(C)CC)c2)c1C (stereo not given) |  | inactive: 0.986% |
| C[C@@]12C(=O)Nc3ccc(Br)cc3C(=O)N1[C@H]1c3cc(Br)ccc3OC[C@@H]1[C@@H]2c1ccccc1 |  | inconclusive: -6.64% |
| Cc1ccc(N(C)S(=O)(=O)c2ccc(-c3cnc(C4CC4)o3)cc2)cc1 | inconclusive: 11.2 µM [falling, partial curve] |  |
| O=C(c1ccc(Cl)s1)N1CCN(c2ncccn2)CC1 |  | inactive: 8.17% |
| C#CCOCCOCCOCCNc1nc(N2CCN(C(=O)CCCCCCCCCCNC(=O)[C@H](CCCCN)n3cc(CCO)nn3)CC2)nc(N2CCN(C(=O)CCCCCCCCCCNC(=O)[C@H](CCCCN)n3cc(CCCC(=O)O)nn3)CC2)n1 |  | inconclusive: 3.18% |
| Cc1cc(C(=O)N/N=C/c2cccc([N+](=O)[O-])c2O)n[nH]1 |  | inactive: -0.0555% |
| CCCCNC(=S)N1CCN(C(c2ccccc2)c2ccccc2)CC1 |  | inconclusive: 8.45% |
| CC(=O)c1c(N2CCN(CCO)CC2)nc(=S)n(-c2ccccc2)c1C |  | inactive: -0.156% |
| Cc1cnc(C(=O)Nc2nccs2)cn1 |  | inconclusive: -0.104% |
| Cc1cccc(C(=O)c2cnc3ccccc3c2-c2ccccc2)c1 |  | inconclusive: -23.9% |
| CC(NS(=O)(=O)c1ccc2c(c1)CC(=O)N2C)c1ccccc1 (stereo not given) | inconclusive: 7.08 µM [rising, full curve, poor fit] |  |
| CCOC(=O)N1CCC(Nc2c(NCCCN(C)Cc3ccccc3)c(=O)c2=O)CC1 |  | inconclusive: 5.81% |
| COc1cc(C2C(C#N)=C(C)NC3=C2C(=O)c2ccccc23)cc(OC)c1OC (stereo not given) | inconclusive: 0.231 µM [falling, full curve, poor fit] |  |
| COc1cc(/C=N/OCC(=O)NC2CCCCC2C)ccc1OCc1ccc(Cl)cc1 (stereo not given) |  | inconclusive: 2.27% |
| Cc1ccc(-n2c(N)c(C(=O)N3CCCCC3)sc2=S)cc1 |  | inactive: 0.949% |
| Cc1ccc(-c2csc(N3CCN(c4cc5c(cc4Cl)nc(-c4ccncc4)n5CCN4CCCCC4)CC3)n2)cc1 |  | inactive: -2.27% |
| CCNc1ccc2noc3c2c1C(=O)c1ccccc1-3 |  | inconclusive: 28.2% |
| CC1CC2(CCCCC2)N2C(=O)C(=O)c3cccc1c32 (stereo not given) |  | inconclusive: -10.8% |
| CCOc1ccc2[nH]c(C(=O)N/N=C/c3ccc(OC)cc3)cc2c1 | inconclusive: 11.2 µM [falling, partial curve] |  |

Compounds above with a nitro group on carbon (two):

| SMILES | Potency | activity change, negative = inhibition |
| --- | --- | --- |
| Cc1ccnc(NC(=O)c2ccccc2[N+](=O)[O-])c1 | inconclusive: 35.5 µM [falling, single point] |  |
| Cc1cc(C(=O)N/N=C/c2cccc([N+](=O)[O-])c2O)n[nH]1 |  | inactive: -0.0555% |

(listing goes on)

| SMILES | Potency | activity change, negative = inhibition |
| --- | --- | --- |
| Cc1ccc2c(CN3CCN(Cc4ccc5c(c4)OCO5)CC3)cc(=O)oc2c1C |  | inconclusive: 3.12% |
| O=C(Nc1ccccc1N1CCOCC1)c1ccc([N+](=O)[O-])s1 |  | inactive: 0.772% |
| O=C1N/C(=N/N=C/c2ccccc2O)SC1Cc1ccc(F)cc1 (stereo not given) | inconclusive: 12.6 µM [cytotoxic, partial curve] |  |
| COC(=O)C1=NN(C(=O)c2cccc(Br)c2)C(O)(c2ccc(Cl)cc2)C1 (stereo not given) | inconclusive: 15.8 µM [falling, partial curve] |  |
| COCCn1c(=S)[nH]c2cc(C(=O)N3CCc4ccccc4C3)ccc2c1=O |  | inconclusive: 15.4% |
| O=C(COC(=O)C1CCN(c2ccc(C(F)(F)F)cn2)CC1)NCc1cccc(Cl)c1 |  | inactive: 1.65% |
| NC(=O)[C@H]1CC2(CC(c3cccc(NC(=O)COc4ccc(Cl)cc4)c3)=NO2)CN1C(=O)c1ccc(Cl)cc1 (stereo not given in full) |  | inconclusive: -14.8% |
| O=C(NC(=S)Nc1ccc(S(=O)(=O)Nc2nccs2)cc1)c1ccccc1 |  | inconclusive: 9.14% |
| CCCC(C(=O)NCc1ccco1)N(C(=O)CNS(=O)(=O)c1ccccc1)c1ccccc1OC (stereo not given) |  | inconclusive: 0.555% |
| CN(C)CCN(C(=O)/C=C/c1cccs1)c1nc2ccc(F)cc2s1 | inconclusive: 10.3 µM [falling, partial curve] |  |
| CCOc1cc(C)c(Cl)cc1S(=O)(=O)NCc1ccc2c(c1)OCO2 |  | inconclusive: -4.32% |
| COc1ccccc1/C=C(/CC(=O)NCc1ccccc1)c1nc2ccccc2s1 |  | inactive: 13% |
| Cc1cc2nnc(SCC(=O)N3CCCCCC3)n2c(N)n1 |  | inconclusive: 6.66% |
| Cc1cc(C)c2ccc(N)nc2c1O |  | inconclusive: -6.34% |
| COC(=O)CNC(=O)c1cc(-c2ccncc2)nc2c(C)c(Cl)ccc12 |  | inconclusive: -11.9% |
| CCC(C)c1ccc(NC(=S)NCCn2cc(Br)cn2)cc1 (stereo not given) |  | inconclusive: 3.73% |
| CCc1nnc(NC(=O)c2ccc3ncsc3c2)s1 | inconclusive: 35.5 µM [falling, single point] |  |
| CC1(C)CC(NC(=O)c2cc(COc3cccc(C(F)(F)F)c3)on2)CCO1 (stereo not given) |  | inactive: -1.97% |
| CCCN(CCC)c1nc(NC2CCN(C(=O)OCC)CC2)nc(OC)n1 |  | inconclusive: -0.998% |
| Cc1ccc(CN2CCN(Cc3cn(C(C)C)c4ccccc34)CC2CCO)o1 (stereo not given) |  | inconclusive: -13.4% |
| COc1ccccc1C(=O)Nc1ccc2nc3n(c(=O)c2c1)CCCC3 |  | inconclusive: -18.6% |
| O=C1C2C3C=CC(O3)C2C(=O)N1CC(O)c1ccccc1 (stereo not given) |  | inconclusive: 1.75% |
| CC1=NN(Cc2cc(C(C)(C)C)c(O)c(C(C)(C)C)c2)C(=O)C1 |  | inconclusive: 4.86% |
| Cc1[nH]n(-c2ccccc2)c(=O)c1C=NC1CCCCCC1 |  | inconclusive: 0.774% |
| COc1ccc(S(=O)(=O)NCC2CCCN(Cc3cn(C)nc3C)C2)cc1 (stereo not given) |  | inactive: -0.949% |
